# B1: Q8BHN3 (protein, UniProt Q8BHN3 1-944, looked up)
# chain: MAAIAAVAARRRRSWLSLVLAYLGVCLGITLAVDRSNFKTCDESSFCKRQRSIRPGLSPYRALLDTLQLGPDALTVHLIHEVTKVLLVLELQGLQKNMTRIRIDELEPRRPRYRVPDVLVADPPTARLSVSGRDDNSVELTVAEGPYKIILTAQPFRLDLLEDRSLLLSVNARGLMAFEHQRAPRVPQESKDPAEGNGAQPEATPGDGDKPEETQEKAEKDEPGAWEETFKTHSDSKPYGPTSVGLDFSLPGMEHVYGIPEHADSLRLKVTEGGEPYRLYNLDVFQYELNNPMALYGSVPVLLAHSFHRDLGIFWLNAAETWVDISSNTAGKTLFGKMLDYLQGSGETPQTDIRWMSESGIIDVFLMLGPSVFDVFRQYASLTGTQALPPLFSLGYHQSRWNYRDEADVLEVDQGFDDHNMPCDVIWLDIEHADGKRYFTWDPTRFPQPLNMLEHLASKRRKLVAIVDPHIKVDSGYRVHEELRNHGLYVKTRDGSDYEGWCWPGSASYPDFTNPRMRAWWSNMFSFDNYEGSAPNLYVWNDMNEPSVFNGPEVTMLKDAVHYGGWEHRDIHNIYGLYVHMATADGLIQRSGGIERPFVLSRAFFSGSQRFGAVWTGDNTAEWDHLKISIPMCLSLALVGLSFCGADVGGFFKNPEPELLVRWYQMGAYQPFFRAHAHLDTGRREPWLLASQYQDAIRDALFQRYSLLPFWYTLFYQAHKEGFPVMRPLWVQYPEDMSTFSIEDQFMLGDALLIHPVSDAGAHGVQVYLPGQEEVWYDIQSYQKHHGPQTLYLPVTLSSIPVFQRGGTIVPRWMRVRRSSDCMKDDPITLFVALSPQGTAQGELFLDDGHTFNYQTRHEFLLRRFSFSGSTLVSSSADPKGHLETPIWIERVVIMGAGKPAAVVLQTKGSPESRLSFQHDPETSVLILRKPGVSVASDWSIHLR
# modifications: full-length
# B2: Q6PE01 (protein, UniProt Q6PE01 1-358, looked up)
# chain: MIEQQKRKGPELPLVPVKRPRHELLLGAAGAGPGAGPQQATPGALLQAGPPRCSSLQAPIMLLSGHEGEVYCCKFHPNGSTLASAGFDRLILLWNVYGDCDNYATLKGHSGAVMELHYNTDGSMLFSASTDKTVAVWDSETGERVKRLKGHTSFVNSCYPARRGPQLVCTGSDDGTVKLWDIRKKAAVQTFQNTYQVLAVTFNDTSDQIISGGIDNDIKVWDLRQNKLTYTMRGHADSVTGLSLSSEGSYLLSNAMDNTVRVWDVRPFAPKERCVKIFQGNVHNFEKNLLRCSWSPDGSKIAAGSADRFVYVWDTTSRRVLYKLPGHAGSINEVAFHPDEPIILSASSDKRLYMGEIQ
# modifications: full-length
# B3: Q8BP47 (protein, UniProt Q8BP47 1-559, looked up)
# chain: MSSEVIRGTAEMVLAELYVSDREGNDATGDGTKEKPFKTGLKALMTVGKEPFPTIYVDSQKENERWDVISKSQMKNIKKMWHREQMKNDSREKKEAEDNLRREKNLEEAKKIIIKNDPSLPEPACVKISALEGYRGQRVKVFGWVHRLRRQGKNLMFLVLRDGTGYLQCVLSDDLCQCYNGVVLSTESSVAVYGTLNLTPKGKQAPGGHELSCDFWELVGLAPAGGADNLINEESDVDVQLNNRHMMIRGENMSKILKARSMITRCFRDHFFDRGYCEVTTPTLVQTQVEGGATLFKLDYFGEEAFLTQSSQLYLETCLPALGDVFCIAQSYRAEQSRTRRHLAEFTHVEAECPFLTFEDLLNRLEDLVCDVVDRVLKSPVASIVYELNPNFKPPKRPFRRMNYSDAIEWLKEHDVKKEDGTFYEFGDDIPEAPERLMTDTINEPILLCRFPVEIKSFYMQRCPEDPRLTESVDVLMPNVGEIVGGSMRSWDSEEILEGYKREGIDPAPYYWYTDQRKYGTCPHGGYGLGLERFLSWILNRYHIRDVCLYPRFLQRCRP
# modifications: full-length
# B4: P21614 (protein, UniProt P21614 1-476, looked up)
# chain: MKRVLVLLLALAFGHALERGRDYEKDKVCNELAMLGKEDFRSLSLILYSRKFSSSTFEQVNQLVKEVVSLTEECCAEGADPTCYDTRTSELSVKSCESDAPFPVHPGTPECCTKEGLERKLCMAALSHQPQEFPTYVEPTNDEICEAFRRDPKGFADQFLYEYSSNYGQAPLPLLVAYTKNYLSMVGSCCTSANPTVCFVKERLQMKHLSLLTTMSNRVCSQYAAYGKEKSRLSHLIKLAQKVPTANLENVLPLAEDFTEILSRCCESTSEDCMASELPEHTIKICQNLSKKNSKFEECCQENTPMNIFMCTYFMPAAEPLQLPAIKLPTGKDLCGQSTTQAMDQYTFELSRRTQVPEVFLSKVLEPTLKTLRECCDTQDSVACFSTQSPLLKRQLTSFIEKGQEMCADYSENTFTEYKKKLAERLRTKTPNTSPAELKDMVEKHSDFASKCCSINSPPLYCSSQIDAEMIDTLQS
# modifications: full-length
# B5: P10639 (protein, UniProt P10639 1-105, looked up)
# chain: MVKLIESKEAFQEALAAAGDKLVVVDFSATWCGPCKMIKPFFHSLCDKYSNVVFLEVDVDDCQDVAADCEVKCMPTFQFYKKGQKVGEFSGANKEKLEASITEYA
# modifications: full-length
# B6: P63038 (protein, UniProt P63038 1-573, looked up)
# chain: MLRLPTVLRQMRPVSRALAPHLTRAYAKDVKFGADARALMLQGVDLLADAVAVTMGPKGRTVIIEQSWGSPKVTKDGVTVAKSIDLKDKYKNIGAKLVQDVANNTNEEAGDGTTTATVLARSIAKEGFEKISKGANPVEIRRGVMLAVDAVIAELKKQSKPVTTPEEIAQVATISANGDKDIGNIISDAMKKVGRKGVITVKDGKTLNDELEIIEGMKFDRGYISPYFINTSKGQKCEFQDAYVLLSEKKISSVQSIVPALEIANAHRKPLVIIAEDVDGEALSTLVLNRLKVGLQVVAVKAPGFGDNRKNQLKDMAIATGGAVFGEEGLNLNLEDVQAHDLGKVGEVIVTKDDAMLLKGKGDKAHIEKRIQEITEQLDITTSEYEKEKLNERLAKLSDGVAVLKVGGTSDVEVNEKKDRVTDALNATRAAVEEGIVLGGGCALLRCIPALDSLKPANEDQKIGIEIIKRALKIPAMTIAKNAGVEGSLIVEKILQSSSEVGYDAMLGDFVNMVEKGIIDPTKVVRTALLDAAGVASLLTTAEAVVTEIPKEEKDPGMGAMGGMGGGMGGGMF
# modifications: full-length
# System: CA19-9 modified proteins
# Test: CA19-9 IP/MS (iTRAQ) of organoid conditioned media after Dox treatment
# Design: species or system mouse
# Conditions: A217 (genetic negative) organoids conditioned media, after 8 hours of treatment, CA19-9 IP with 5B1; relative to 17 0H NS19
row,Molecule,17 8H 5B1
1,B1,6.225
2,B2,3.131
3,B3,2.31

# Same assay, conditions: A217 (genetic negative) organoids conditioned media, after 8 hours of treatment, CA19-9 IP with NS19-9; relative to 17 0H NS19
row,Molecule,17 8H NS19
1,B1,0.476
2,B2,0.17
3,B3,0.588

# Same assay, conditions: A217 (genetic negative) organoids conditioned media, before treatment (0H), CA19-9 IP with NS19-9; relative abundance, reference channel
row,Molecule,17 0H NS19
1,B1,1
2,B2,1
3,B3,1

# Same assay, conditions: A217 organoid conditioned media, 0H, 5B1
row,Molecule,17 0H 5B1 (CA19-9 IP/MS relative abundance)
1,B4,0.609
2,B5,1.254
3,B6,1.687

# Same assay, conditions: A217 organoid conditioned media, 0H, NS19-9; every printed value in this column is 1
row,Molecule,17 0H NS19 (CA19-9 IP/MS relative abundance)
1,B4,1
2,B5,1
3,B6,1

# Same assay, conditions: A217 organoid conditioned media, 8 hours, 5B1
row,Molecule,17 8H 5B1 (CA19-9 IP/MS relative abundance)
1,B4,0.365
2,B5,1.833
3,B6,1.65

# Same assay, conditions: A217 organoid conditioned media, 8 hours, NS19-9
row,Molecule,17 8H NS19 (CA19-9 IP/MS relative abundance)
1,B4,0.901
2,B5,0.442
3,B6,0.534

# Same assay, conditions: A220 (C;R^LSL;F) organoids conditioned media, before treatment (0H), CA19-9 IP with 5B1; relative to 17 0H NS19
row,Molecule,20 0H 5B1
1,B1,4.305
2,B2,2.697
3,B3,1.962

# Same assay, conditions: A220 organoid conditioned media, 0H, 5B1
row,Molecule,20 0H 5B1 (CA19-9 IP/MS relative abundance)
1,B4,0.412
2,B5,1.19
3,B6,1.241

# Same assay, conditions: A220 organoid conditioned media, 0H, NS19-9
row,Molecule,20 0H NS19 (CA19-9 IP/MS relative abundance)
1,B4,0.767
2,B5,0.368
3,B6,0.45

# Same assay, conditions: A220 organoid conditioned media, 8 hours, 5B1
row,Molecule,20 8H 5B1 (CA19-9 IP/MS relative abundance)
1,B4,0.659
2,B5,1.885
3,B6,1.434

# Same assay, conditions: A220 organoid conditioned media, 8 hours, NS19-9
row,Molecule,20 8H NS19 (CA19-9 IP/MS relative abundance)
1,B4,0.928
2,B5,0.353
3,B6,0.547

# Reference: patent US12378320B2, “Methods for treating pancreatitis” (Cold Spring Harbor Laboratory, priority 2018, dated 2025)
